Our source for the binding values is article PMC6812846.

Amino acid sequences for entries named in this document (tags omitted).
UniProt P09874: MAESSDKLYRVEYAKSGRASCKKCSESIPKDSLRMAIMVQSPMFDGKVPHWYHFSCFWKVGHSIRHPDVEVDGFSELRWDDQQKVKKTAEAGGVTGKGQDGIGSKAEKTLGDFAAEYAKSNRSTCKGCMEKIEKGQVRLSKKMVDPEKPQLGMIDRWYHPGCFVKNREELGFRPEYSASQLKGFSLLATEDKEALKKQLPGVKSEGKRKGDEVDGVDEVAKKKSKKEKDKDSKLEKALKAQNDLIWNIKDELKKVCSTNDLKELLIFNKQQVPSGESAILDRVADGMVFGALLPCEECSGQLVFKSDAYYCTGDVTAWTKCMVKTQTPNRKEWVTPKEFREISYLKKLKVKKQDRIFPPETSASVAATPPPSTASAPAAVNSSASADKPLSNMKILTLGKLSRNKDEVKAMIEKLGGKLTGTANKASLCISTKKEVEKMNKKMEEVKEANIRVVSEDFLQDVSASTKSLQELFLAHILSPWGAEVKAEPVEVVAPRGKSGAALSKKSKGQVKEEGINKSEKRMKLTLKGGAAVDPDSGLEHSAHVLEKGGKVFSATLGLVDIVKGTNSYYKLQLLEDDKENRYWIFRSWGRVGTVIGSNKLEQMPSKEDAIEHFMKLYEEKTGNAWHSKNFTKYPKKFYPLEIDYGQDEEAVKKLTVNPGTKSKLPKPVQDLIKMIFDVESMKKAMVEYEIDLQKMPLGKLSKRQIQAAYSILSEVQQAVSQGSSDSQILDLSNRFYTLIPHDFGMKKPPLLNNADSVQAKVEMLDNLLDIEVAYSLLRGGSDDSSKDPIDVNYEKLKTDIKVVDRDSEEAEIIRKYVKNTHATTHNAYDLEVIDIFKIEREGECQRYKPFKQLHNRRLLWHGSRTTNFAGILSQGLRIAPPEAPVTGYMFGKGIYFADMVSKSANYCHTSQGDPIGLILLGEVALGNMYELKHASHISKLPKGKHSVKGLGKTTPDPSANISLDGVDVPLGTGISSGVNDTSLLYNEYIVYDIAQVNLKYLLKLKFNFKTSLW
UniProt Q9UGN5: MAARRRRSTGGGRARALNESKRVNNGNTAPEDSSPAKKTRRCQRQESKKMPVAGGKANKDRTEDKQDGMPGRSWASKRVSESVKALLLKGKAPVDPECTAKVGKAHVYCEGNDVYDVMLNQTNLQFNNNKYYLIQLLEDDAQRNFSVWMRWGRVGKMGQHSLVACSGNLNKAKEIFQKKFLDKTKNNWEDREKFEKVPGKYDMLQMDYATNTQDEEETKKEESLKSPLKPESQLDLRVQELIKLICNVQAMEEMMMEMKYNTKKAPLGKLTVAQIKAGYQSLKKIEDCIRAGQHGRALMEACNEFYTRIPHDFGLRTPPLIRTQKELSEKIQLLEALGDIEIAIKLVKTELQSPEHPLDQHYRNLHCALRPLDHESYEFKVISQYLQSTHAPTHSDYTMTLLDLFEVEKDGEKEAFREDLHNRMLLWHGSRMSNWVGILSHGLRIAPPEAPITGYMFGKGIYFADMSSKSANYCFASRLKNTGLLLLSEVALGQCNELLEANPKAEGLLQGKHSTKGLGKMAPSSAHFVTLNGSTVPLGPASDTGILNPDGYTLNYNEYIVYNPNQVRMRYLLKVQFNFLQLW

Holding throughout (assay): co-IP; reciprocal co-IP from hESCs reconstructed with 3×Flag-KHDC3L (antibody against Flag, and reciprocal immunoprecipitation); 1 × 10^7 cells lysed in RIPA lysis buffer, Protein G Dynabeads, immunoblotting; cells with or without DNA damage
On the technique in general: A western blot detects proteins with antibodies after separation by electrophoresis.

In assay [1] the target is T1, 3×Flag-KHDC3L (wild-type KH domain containing 3 like) (human) (UniProt Q587J8).
T1 sequence: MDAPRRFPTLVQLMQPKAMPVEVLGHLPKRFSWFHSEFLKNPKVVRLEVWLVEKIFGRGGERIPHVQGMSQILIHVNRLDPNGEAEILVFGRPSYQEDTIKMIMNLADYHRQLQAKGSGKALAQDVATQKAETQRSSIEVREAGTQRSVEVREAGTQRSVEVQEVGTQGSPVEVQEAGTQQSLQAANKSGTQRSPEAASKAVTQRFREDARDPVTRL

Assay [2] concerns the target T2, 3×Flag-KHDC3L Δ11 (p.E150_V160del) (human) (UniProt Q587J8).
T2 sequence: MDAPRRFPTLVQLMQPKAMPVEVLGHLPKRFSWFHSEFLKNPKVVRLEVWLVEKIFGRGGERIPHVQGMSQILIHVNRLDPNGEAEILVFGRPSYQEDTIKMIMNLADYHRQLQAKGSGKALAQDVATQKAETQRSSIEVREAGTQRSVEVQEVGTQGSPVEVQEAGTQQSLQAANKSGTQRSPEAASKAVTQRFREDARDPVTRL

Assay [3] concerns the target T3, 3×Flag-KHDC3L Δ23 (p.E150_V172del) (human) (UniProt Q587J8).
T3 sequence: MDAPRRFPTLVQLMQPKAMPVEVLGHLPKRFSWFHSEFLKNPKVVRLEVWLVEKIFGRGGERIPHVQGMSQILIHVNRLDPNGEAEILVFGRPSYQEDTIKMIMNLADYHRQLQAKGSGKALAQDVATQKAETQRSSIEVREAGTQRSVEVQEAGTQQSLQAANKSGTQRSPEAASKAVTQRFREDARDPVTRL

In assay [4] the target is poly(ADP-ribose) polymerase 1 (human (endogenous in hESCs)) (UniProt P09874).

Results are given in words; binding and its absence hold for the method and conditions named. In cells and extracts the contact can be indirect. Some results given as binding are weak or reduced against the parent protein; the word gives no strength. Where a sequence is shown, tags or fusion partners need not be part of it.

On to “PARP2 (from UniProt Q9UGN5 1-583) (enzyme)”, for which the binding entry in assay [1] was “no binding”.

For “poly(ADP-ribose) polymerase 1 (from UniProt P09874 1-1014) (enzyme)”, the binding result in assay [1], in assay [2] and in assay [3] was “binds” in each case.

B1: 3×Flag-KHDC3L (wild-type KH domain containing 3 like) (protein, UniProt Q587J8 1-217)
chain: T1 sequence
For B1, in assay [4], the binding result was “binds”.
